These are yes or no findings as the source states them, for the method shown. Binding seen in cells or lysates may run through a third protein. Binding calls can cover weak binding; strength is not graded here.
Columns and labels:
[1] = target: T1, TST-uS2c (158) nascent chain in stalled ribosome nascent chain complex (Arabidopsis thaliana) (UniProt P56797); experiment: co-sedimentation
T1 sequence: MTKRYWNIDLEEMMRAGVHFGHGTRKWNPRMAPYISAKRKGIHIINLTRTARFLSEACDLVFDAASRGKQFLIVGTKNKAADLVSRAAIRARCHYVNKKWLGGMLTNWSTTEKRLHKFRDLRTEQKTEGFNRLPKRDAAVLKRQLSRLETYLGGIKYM

[2] = target: T1, TST-uS2c (158) nascent chain in stalled ribosome nascent chain complex (Arabidopsis thaliana); experiment: pull-down

Question: Which results are given for chloroplast ribosomal subunit uL4?
Answer: binding [1]: binds; binding [2]: binds

Question: How did the binding [2] turn out when chloroplast ribosomal subunit uL24 was run?
Answer: binds

Question: plastidic trigger factor (TIG1) was tested. Which binding [2] did it give?
Answer: binds

Question: Which binding [2] does the source give for “stromal suppressor of tic40 protein 2 (STIC2), endogenous pea protein” here?
Answer: no binding

From paper doi:10.1101/2022.03.18.484870 (bioRxiv, 2022)
